Measurements as given in patent US20260240763A1, “Inhalable Serotonin Receptor Agonist Formulations” (Pinata Holdings Inc., priority 2022, published 2026).
At least one structure is not confirmed: it was looked up by name or label, or the drawing left a doubt.

Test system: generalized anxiety and/or post-traumatic stress disorder (PTSD)
Assay: Inhaled dry powder given to subjects for generalized anxiety and/or PTSD
Type: in vivo, human
Conditions: doses of 5 mg, 10 mg and 15 mg of psilocybin, each about three weeks apart, encapsulated by HPMCAS, inhaler, three male subjects and one subject
Procedure: Three male subjects and one subject were administered doses of 5 mg, 10 mg, and 15 mg of psilocybin. Each individual dosage level was administered about three weeks apart for the treatment of generalized anxiety and/or post-traumatic stress disorder (PTSD). In a separate experiment, the subjects were administered doses of 1 mg, 5 mg, and 10 mg of 4-AoC-DMT (O-Acetylpsilocin). Each individual dosage level was administered about three weeks apart for the treatment of generalized anxiety and/or post-traumatic stress disorder (PTSD). The dry powder pharmaceutical compositions comprised psilocybin or 4-AoC-DMT encapsulated by HPMCAS using the methods described herein (e.g., spay drying). The encapsulated dry powder was administered with an inhaler.

Q: With `CN(C)CCc1c[nH]c2cccc(OP(=O)(O)O)c12` [psilocybin, 4-phosphoryloxy-N,N-dimethyltryptamine] as the compound, how does the “effect on anxiety in the subjects” value read?
A: The value was “reduced anxiety”.
